Values from PubChem BioAssay AID1259254 (NCATS, 2017)
Test: 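Finding genes that stop cells copying their DNA twice in one cycle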 (primary screen). Cell system: human HCT116 colorectal cancer cells. Reagent: single siRNA against human genes. Timing: 3 days. Measurement: 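Nuclei stained with Hoechst and imaged; cell-cycle phase assigned by DNA content; G2 share scaled per plate, non-targeting siRNA 0%, GMNN siRNA 100%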. Reading the numbers: G2 robust z-score and G2 cells, % of GMNN control: higher = more G2 cells, more excess DNA replication. Hit rule: 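An siRNA counts as active if its G2 robust z-score lies at least 5 MADs above the screen median; here such calls match roughly 38% of GMNN control or more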.
Shown is an unselected part of about 59,000 deposited reagents. About 1,550 of them (2.6%) were called active. 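G2 share is only a proxy for re-replication; each gene was hit by three separate siRNAs, and active genes were retested.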 Unmarked entries are inactive. The numbers tell different reagents against one gene apart. Further read-outs or replicates are left out here. Not stated in the record: the amount of reagent.

How did the screen score ELOA3P #1?
G2 robust z-score: -0.204; G2 cells, % of GMNN control: 1.53

Which result is listed for ELOA3P #2?
G2 robust z-score: 1.11; G2 cells, % of GMNN control: 10.7

What is on record for ELOA3P #3?
G2 robust z-score: 2.75; G2 cells, % of GMNN control: 22.3

With HLA-B #1, what was measured?
G2 robust z-score: 1.38; G2 cells, % of GMNN control: 12.7

For HLA-B #2, what was measured?
G2 robust z-score: -0.345; G2 cells, % of GMNN control: 0.537

With HLA-B #3, what does the deposit list?
G2 robust z-score: 0.325; G2 cells, % of GMNN control: 5.26

For HLA-B #4, what does the deposit list?
G2 robust z-score: -0.597; G2 cells, % of GMNN control: -1.23

For HLA-B #5, what was measured?
G2 robust z-score: -0.459; G2 cells, % of GMNN control: -0.259

For HLA-B #6, what does the deposit list?
G2 robust z-score: -0.463; G2 cells, % of GMNN control: -0.29

With SKP1 #1, how do the results read?
G2 robust z-score: 2.15; G2 cells, % of GMNN control: 18.1

What did the screen give for SKP1 #2?
G2 robust z-score: -0.464; G2 cells, % of GMNN control: -0.295

With SKP1 #3, how do the results read?
G2 robust z-score: -0.665; G2 cells, % of GMNN control: -1.71

For TMEM59 #1, what was measured?
G2 robust z-score: -0.629; G2 cells, % of GMNN control: -1.46

With TMEM59 #2, how do the results read?
G2 robust z-score: -0.162; G2 cells, % of GMNN control: 1.83

What is on record for TMEM59 #3?
G2 robust z-score: -0.483; G2 cells, % of GMNN control: -0.433

2 entries from above, ordered by “G2 robust z-score”, descending.
TMEM59 #2 — G2 robust z-score: -0.162; G2 cells, % of GMNN control: 1.83
TMEM59 #3 — G2 robust z-score: -0.483; G2 cells, % of GMNN control: -0.433

The listing continues:
With AIF1 #1, what does the deposit list?
G2 robust z-score: 0.00915; G2 cells, % of GMNN control: 3.03

What is on record for AIF1 #2?
G2 robust z-score: -0.385; G2 cells, % of GMNN control: 0.256

Which result is listed for AIF1 #3?
G2 robust z-score: 1.29; G2 cells, % of GMNN control: 12

For ADCY10 #1, what was measured?
G2 robust z-score: -0.622; G2 cells, % of GMNN control: -1.41

What is on record for ADCY10 #2?
G2 robust z-score: -0.0385; G2 cells, % of GMNN control: 2.7

What did the screen give for ADCY10 #3?
G2 robust z-score: -0.213; G2 cells, % of GMNN control: 1.47

For CLMN #1, what was measured?
G2 robust z-score: 2.39; G2 cells, % of GMNN control: 19.8

With CLMN #2, what does the deposit list?
G2 robust z-score: -0.757; G2 cells, % of GMNN control: -2.36

With CLMN #3, how do the results read?
G2 robust z-score: -0.56; G2 cells, % of GMNN control: -0.969
